In all, about 350,000 compounds went through this assay and about 6,000 (1.7%) were called active. Inconclusive means that the source gave no clear call. Such entries were picked first, then a sample of the others. Cut-off read from the data, not from the text of the source: active = CPE inhibition above about 20% (passing the limit was not always enough); inconclusive = no clear call, values can overlap the other calls; tested in BHK-21 cells.
assay: protection of cells from dengue 2 killing – plate reader, single concentration, primary screen (AID 651640); conditions: DENV2-infected cells, cytopathic effect rescue, at 9.99 µM, stronger effect = higher value;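 note: 0% = median of neutral control wells and 100% = median of positive control wells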

SMILES | CPE inhibition
OC[C@@H]1[C@H](c2ccc(C3=CCCC3)cc2)[C@H]2CN(Cc3cccnc3)CCCCN12 | inconclusive: 22.5%
C[C@@H]1CN([C@@H](C)CO)C(=O)c2cc(NC(=O)Cc3cn(C)c4ccccc34)ccc2O[C@H]1CN(C)Cc1ccc(Oc2ccccc2)cc1 | inconclusive: 21.5%
C[C@H](CO)N1C[C@H](C)[C@H](CN(C)CC2CCCCC2)Oc2ccc(NS(=O)(=O)c3ccc(Cl)cc3)cc2CC1=O | inactive: 0.0235%
C[C@@H]1CN([C@@H](C)CO)C(=O)Cc2cc(NC(=O)Nc3ccc(C(F)(F)F)cc3)ccc2O[C@H]1CN(C)S(=O)(=O)c1ccc(Cl)cc1 | inconclusive: 28.3%
Cc1cc(C)c2sc(N(CCCN(C)C)C(=O)COc3ccc(Cl)cc3)nc2c1 | inconclusive: 23%
C[C@H]1CN([C@@H](C)CO)C(=O)c2cc(NC(=O)Nc3cccc4ccccc34)ccc2O[C@@H]1CN(C)Cc1ccc(C(F)(F)F)cc1 | inconclusive: 20.1%
CCCC#Cc1cnc2c(c1)C(=O)N([C@H](C)CO)C[C@H](C)[C@H](CN(C)C(=O)C1CCC1)O2 | active: 23%
C[C@@H]1CN([C@@H](C)CO)C(=O)c2cc(NC(=O)NC3CCCCC3)ccc2O[C@H]1CN(C)C(=O)NC1CCCCC1 | inconclusive: 26.8%
COc1ccc2c3c(n(C)c2c1)[C@H](CO)N(C(=O)c1ccccc1)CC31CN(C(=O)c2ccccc2)C1 | inactive: 7.35%
CCOC(=O)N1CCN(Cc2nc(N)nc(Nc3ccc(OC)cc3)n2)CC1 | inactive: -3.86%
C[C@@H]1CN([C@@H](C)CO)C(=O)Cc2cc(NC(=O)Nc3ccc(F)cc3)ccc2O[C@@H]1CN(C)Cc1ccc(C(=O)O)cc1 | inconclusive: 33.7%
CC1CCN(CCCCOc2ccccc2F)CC1 | inconclusive: 28.6%
COc1ccc2c3c(n(C)c2c1)[C@H](CO)N(C(=O)Nc1ccccc1F)CC31CCN(C(C)=O)CC1 | inconclusive: 21.4%
COc1ccc(OC[C@@H](O)CNC(=O)c2cccc3c2C(=O)c2ccc(Cl)cc2S3(=O)=O)cc1 | inconclusive: 28.2%
O=C(Nc1ccc(-c2csc(Nc3cccc(C(F)(F)F)c3)n2)cc1)c1cc([N+](=O)[O-])cc(C(F)(F)F)c1 | active: 135%
CC1=C(C(=O)Nc2ccccc2C(=O)N2CCC(C)CC2)SCCO1 | inconclusive: 25.1%
C[C@@H]1CCCCO[C@H](CN(C)C(=O)NC2CCCCC2)[C@@H](C)CN([C@H](C)CO)C(=O)c2cc(NC(=O)Cc3ccccc3)ccc2O1 | inactive: -2.72%
Cc1ccc(S(=O)(=O)N2C[C@H]3n4c(=O)ccc(=O)n4C[C@H](OC(=O)NC4CC4)[C@@]3(O)C2)cc1 | inactive: -3.61%

Two records drawn at random from the list so far, as already listed:
SMILES | CPE inhibition
C[C@@H]1CN([C@@H](C)CO)C(=O)c2cc(NC(=O)NC3CCCCC3)ccc2O[C@H]1CN(C)C(=O)NC1CCCCC1 | inconclusive: 26.8%
C[C@@H]1CCCCO[C@H](CN(C)C(=O)NC2CCCCC2)[C@@H](C)CN([C@H](C)CO)C(=O)c2cc(NC(=O)Cc3ccccc3)ccc2O1 | inactive: -2.72%

— PubChem BioAssay AID651640 (Broad Institute, 2012)
